The values below come from US11531036B2, “Method and apparatus for determining the efficacy of statins for treating inflammatory diseases in individual patients” (Queen Mary University of London, priority 2017, dated 2022).

This assay relates to 13-series resolvins (RvT) and eicosanoids.
Setting [1] is: 0.2 mg/Kg, plasma 24 h after last dose.
Where [2] appears, read: blood 2 h after last statin dose on day 7.

With `CC(C)c1c(C(=O)Nc2ccccc2)c(-c2ccccc2)c(-c2ccc(F)cc2)n1CC[C@@H](O)C[C@@H](O)CC(=O)O` [atorvastatin], under setting [1], the “plasma LTB4, PGD2, PGE2, PGF2α and TxB2 levels” value was “decreases”; the “plasma RvT1 concentration” value is reported as “increased”; the “plasma RvT4 concentration” value is given as “only increased by atorvastatin”. In addition, under setting [2], the “increase in plasma/peripheral blood RvT compared with vehicle” value is on record as > 200%; the “individual RvT increased in plasma compared with vehicle” value is “increases in RvT1, RvT2 and RvT3”.
